# These are yes or no findings as the source states them, for the method shown. Some binding calls cover weakened binding; strength is not graded here.
# The chains behind the UniProt entries cited, without tags or fusion partners.
# UniProt Q06609: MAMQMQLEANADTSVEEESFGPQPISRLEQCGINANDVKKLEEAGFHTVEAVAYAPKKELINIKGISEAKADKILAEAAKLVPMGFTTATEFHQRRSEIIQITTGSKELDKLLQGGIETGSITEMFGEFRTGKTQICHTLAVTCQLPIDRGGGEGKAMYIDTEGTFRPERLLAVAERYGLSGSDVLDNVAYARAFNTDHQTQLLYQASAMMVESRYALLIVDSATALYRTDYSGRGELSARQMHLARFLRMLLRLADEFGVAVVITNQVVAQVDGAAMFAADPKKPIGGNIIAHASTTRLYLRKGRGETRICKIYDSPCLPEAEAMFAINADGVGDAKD
# What was measured:
# [1] = molecular target: RAD51 (UniProt Q06609); assay: co-IP; purified RAD51 (100 nM) held on RAD51 antibody and Protein G magnetic beads, purified RADX WT or mutant added for 1 h; 50 mM Tris pH 8.0, 200 mM NaCl, 2 mM CaCl2, 2 mM ATP, 1 mM DTT; immunoblot; both purified
# [2] = molecular target: full-length RADX, wild type, tagged with mCherry-FLAG or with GFP-HA (human) (UniProt Q6NSI4); assay: co-IP; purified mCherry-FLAG proteins mixed with purified GFP-HA-RADX and captured on GFP-trap magnetic agarose beads, 1 h at 4 °C; 50 mM Tris pH 7.5, 250 mM NaCl, 10% glycerol, 0.05% NP-40; immunoblot; both purified
molecule,measurement,setting,value
"full-length RADX, wild type, tagged with mCherry-FLAG or with GFP-HA (from UniProt Q6NSI4 1-855)",binding,[1],binds
mCherry-FLAG-RADX domain 4 (675–727) (from UniProt Q6NSI4 675-727) (domain or fragment),binding,[2],no binding
"mCherry-FLAG-RADX E842K (natural protein, human, UniProt Q6NSI4 1-855, looked up, RADX, human, full length with one point mutation; also called E842K RADX; pTM156; source: HEK293T, purified (anti-FLAG M2 beads, 3x FLAG peptide, Superdex 200)) MSGESGQPEAGPSHAGLDWPNPERNRAGVPGGVIRRAGSQGPRSWIQKVLEQIMDSPRQCVTPSEVVPVTVLAVQRYLLEDEPRDTVPKPPLYCYDVTISDGVYQEKCYLDPSLNSLVYQNILKVGIQMRISRVSCLYNEKRIGQGILCIDNVHCGETSDSISLETPFRNRAHQEKPERPLRGGKSHYLALWNNEDPYGDIWLTDKQPEEHNFSDTKIISLSHLEMTWTNRRNFPALLVRILHKSKLRYYGKPDKKMIEPYQTFLEVADSSGTVSVIMWNALCPEWYKSLRVGLVLLLQDYSVKKSYPFRIQPVPVDPQIKLISTMEICLNLRDPPTNIIIIPEKQVKPEWRLPKLNHRFTTRSELDDMPENCICDVIGLLVFVGRVQRSKKKENREDFWSYRWIHIADGTSEQPFIVELFSTSQPEIFENIYPMAYFVCTQLKVVRNDNQVPKLLYLTTTNESGVFITGHRGQPYTYDAKVKNFIQWIRTKSDSGEQKNMVIGGYYPYPPVPETFSKYSSSIKVESLLTAISEVRKEIEDLQYREQKRIAIQGIITAIKYIPHSSATESASASETLRNANRPSTSQAARVEIQERNGKRHQDDEPVNSQYFQTTSTNLSLSNKIRILQGPHANPVAVPQPGASVQTKGIKPGMPSIFNRRANINANLQGKARKTISDRWESQLWREKKFGLIDHLHYSRVYPESIPRKFMFEHRKFLSDQYNSQPAKYVPPEGRPPKLDDFKSARSLGHFEVTILGLNHEIAIDVAFLPMYCPEDIRTSQIDTLLTSMNYSCAYPQDTTGNDRLPGPRAVAGDIIKAATELDRVHIVGILDICNLGNNKVKVYLHKIYSPENTS",binding,[1],binds
"mCherry-FLAG-RADX K847D (natural protein, human, UniProt Q6NSI4 1-855, looked up, RADX, human, full length with one point mutation; also called K847D RADX; pTM157; source: HEK293T, purified (anti-FLAG M2 beads, 3x FLAG peptide, Superdex 200)) MSGESGQPEAGPSHAGLDWPNPERNRAGVPGGVIRRAGSQGPRSWIQKVLEQIMDSPRQCVTPSEVVPVTVLAVQRYLLEDEPRDTVPKPPLYCYDVTISDGVYQEKCYLDPSLNSLVYQNILKVGIQMRISRVSCLYNEKRIGQGILCIDNVHCGETSDSISLETPFRNRAHQEKPERPLRGGKSHYLALWNNEDPYGDIWLTDKQPEEHNFSDTKIISLSHLEMTWTNRRNFPALLVRILHKSKLRYYGKPDKKMIEPYQTFLEVADSSGTVSVIMWNALCPEWYKSLRVGLVLLLQDYSVKKSYPFRIQPVPVDPQIKLISTMEICLNLRDPPTNIIIIPEKQVKPEWRLPKLNHRFTTRSELDDMPENCICDVIGLLVFVGRVQRSKKKENREDFWSYRWIHIADGTSEQPFIVELFSTSQPEIFENIYPMAYFVCTQLKVVRNDNQVPKLLYLTTTNESGVFITGHRGQPYTYDAKVKNFIQWIRTKSDSGEQKNMVIGGYYPYPPVPETFSKYSSSIKVESLLTAISEVRKEIEDLQYREQKRIAIQGIITAIKYIPHSSATESASASETLRNANRPSTSQAARVEIQERNGKRHQDDEPVNSQYFQTTSTNLSLSNKIRILQGPHANPVAVPQPGASVQTKGIKPGMPSIFNRRANINANLQGKARKTISDRWESQLWREKKFGLIDHLHYSRVYPESIPRKFMFEHRKFLSDQYNSQPAKYVPPEGRPPKLDDFKSARSLGHFEVTILGLNHEIAIDVAFLPMYCPEDIRTSQIDTLLTSMNYSCAYPQDTTGNDRLPGPRAVAGDIIKAATELDRVHIVGILDICNLGNNKVEVYLHDIYSPENTS",binding,[1],binds

# From PMC8902620, “Oligomerization of DNA replication regulatory protein RADX is essential to maintain replication fork stability” (The Journal of Biological Chemistry, 2022)
